The source of these data is patent publication US20230277625A1.

The chains behind the UniProt entries cited, without tags or fusion partners. Where a name states a change or a piece, a line headed by the entry shows the natural chain unless it says otherwise.
UniProt Q14116: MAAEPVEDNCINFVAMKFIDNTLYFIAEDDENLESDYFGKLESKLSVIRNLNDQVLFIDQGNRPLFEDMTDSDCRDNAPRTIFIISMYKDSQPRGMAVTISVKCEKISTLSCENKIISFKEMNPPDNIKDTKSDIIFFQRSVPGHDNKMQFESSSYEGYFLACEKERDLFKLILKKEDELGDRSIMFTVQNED

These are yes or no findings as the source states them, for the method shown. Some results given as binding are weak or reduced against the parent protein; the word gives no strength.

This experiment deals with Cynomolgus monkey IL-18Rα, biotinylated (cynomolgus monkey). In words: SPR, biotinylated receptor on streptavidin capture chip, single-cycle kinetics, FIG. 37A.

On to “Human Interleukin-18 (mature form), wild type (from UniProt Q14116 37-193) (ligand)”, for which the binding entry is given as “binds”.
